The experiment can be described thus: qHTS Assay for Lipid Storage Modulators in Drosophila S3 Cells.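 For cell number change: cells counted by Cell Tracker Red CMTPX staining in the red channel.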 The conditions noted are these: BODIPY lipid droplet fluorescence, 18-24 h; for cell number change: measured here: cell count max response, cells fed with added oleic acid. In a few lines:
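Drosophila S3 cells loaded with oleic acid (400 uM, as added) and compounds at several concentrations; lipid droplets imaged by 488-nm laser-scanning cytometry, 500–530 nm intensity and object ratio to cell channel. Percent activity normalized to 20 uM Triacsin C.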
Background: Quantitative high-throughput screening tests each substance at several concentrations.

Where [1] appears, read: measured here: lipid fluorescence (Fed channel) AC50, cells fed with added oleic acid.
Setting [2] is: measured here: cell number channel AC50, cells fed with added oleic acid.

The other results are listed elsewhere or left out. The main result of the screen is listed elsewhere. These columns were measured beside it and carry no call. Compounds called inactive in the main read-out are mostly missing here. Words in brackets tell the shape of the fitted curve; partial curves, single points and poor fits give uncertain potencies.

In the case of `COc1cccc(C(=O)Nc2nnc(SCC(=O)NC3CCCC3)s2)c1`, the cell number change stood at 11.3%. For the same compound, the AC50 under setting [1] is 6.51 µM [falling, single point].
Turning to `Cn1c(=O)[nH]c(=O)c2c1nc(NCc1ccco1)n2Cc1ccccc1Cl`, the cell number change is 34.4%. Also, under setting [2], the AC50 is 0.231 µM [rising, full curve, poor fit]. Also, under setting [1], the AC50 is 0.82 µM [rising, partial curve].
Regarding `CCOCCCNC(=O)Cc1ccc(Br)cc1`, the cell number change is -46.8%. Under setting [2], the AC50 is 32.6 µM [falling, single point].
As to `COc1ccc(NC(=O)Cn2c3ccc(OC)cc3c3nc4n(c(=O)c32)CCS4)cc1`, the concentration at half-maximal activity (AC50) under setting [1] was 5.17 µM [falling, single point].
For `Cn1c(O)c(N=Nc2nc(-c3ccccc3)cs2)c2ccccc21`, the cell number change was -12.2%. Besides, the AC50 under setting [1] is 16.4 µM [rising, single point].
As for `CN1CCN(C(=O)CN(C)S(=O)(=O)c2ccc(F)cc2)CC1`, the AC50 under setting [1] was 6.31 µM [falling, single point].
In the case of `Cn1c(=O)c(/C(N)=N/OC(=O)c2ccccc2)cn(-c2ccccc2)c1=O`, the cell number change is -56.1%. Also, the AC50 under setting [2] was 2.31 µM [falling, full curve]. In addition, the AC50 under setting [1] is 4.11 µM [falling, full curve].
Turning to `CC(Sc1nc(N)cc(=O)[nH]1)C(=O)NC1CCCCC1` (centres undefined), the cell number change was -8.99%. Besides, the AC50 under setting [2] was 0.00517 µM [falling, full curve, poor fit].
`CCC(C)(C)c1nnc(NC(=O)c2cccc([N+](=O)[O-])c2)s1`: the cell number change is -6.31%. In addition, the AC50 under setting [2] was 0.731 µM [falling, full curve, poor fit].
Regarding `CSc1ccccc1NC(=O)NCCCl`, the cell number change is -116%. The AC50 under setting [2] was 16.4 µM [falling, partial curve]. Also, the AC50 under setting [1] is 16.4 µM [falling, partial curve].
Turning to `CCOc1ccccc1C(=O)Nc1cccc(-c2ccc(N3CCOCC3)nn2)c1`, the cell number change stood at 12.3%. Under setting [1], the AC50 is 6.51 µM [rising, single point].
For the compound `FC(F)(F)c1ccccc1CNCc1ccc2c(c1)OCO2`, the cell number change was found to be 13%.
On to `COc1ccc(OC)c(NC(=O)CCN2CCN(CCO)CC2)c1`, for which the cell number change amounted to 10.8%. The half-maximal activity concentration (AC50) under setting [1] is 29.1 µM [rising, single point].
Regarding `CCn1c(-c2ccccc2Cl)nn(CC(=O)Nc2ccc(OC)cc2)c1=S`, the cell number change was -13.1%. In addition, under setting [2], the half-maximal activity concentration (AC50) is 1.64 µM [rising, partial curve, poor fit].
Take `O=[N+]([O-])c1ccc(/C([O-])=C(/C(=S)Nc2ccccc2F)[n+]2ccccc2)cc1`: the cell number change is -37.6%. Also, the concentration at half-maximal activity (AC50) under setting [2] was 2.31 µM [falling, full curve]. Moreover, the half-maximal activity concentration (AC50) under setting [1] is 0.116 µM [falling, full curve].
As for `Cc1ccc(/C=N/NC(=O)c2ccncc2)s1`, the cell number change was 33%.
`COc1cccc(-c2noc(CCCC(=O)NC3CCCC3)n2)c1`: the cell number change was -5.37%. Further, under setting [1], the concentration at half-maximal activity (AC50) is 0.731 µM [falling, single point].

One may read the AC50 as the concentration at which the activity in the assay is half-maximal. A high value points to weaker potency.

(Values after PubChem BioAssay AID2685 (National Center for Advancing Translational Sciences (NCATS), 2010).)
